The list does not hold the whole screen: it is rich in T/C values a quarter to a half above the control, in often repeated tests (any T/C) and in doses without a T/C. Other doses and runs of a compound stand elsewhere. T/C: endpoint of the treated group in % of that of the vehicle group. Some entries give survivors of the animals treated and no T/C: the source holds a T/C of zero for them, seemingly a mark for toxic or unscored doses. Some doses without a T/C left all or most animals alive at the check, yet need not have been tolerated: the source hardly ever lists a survival T/C far under the control, and the zero likely stands for such cases as well. Survivors were counted at the toxicity check, usually on the fifth day, unless a day is given; later deaths do not show. Schedule codes are those of the source, taken here to give the interval after Q, in days (D) or hours (H), and the number of doses after X. Some entries hold several experiments; the results are listed from low to high. Some schedules carry Z or #; the key to these is not given. For survival time, the PubChem record calls one and a half times the control and up active, and a quarter to a half above the control has no call in these data; cut-offs in other NCI protocols can differ.

The subject of the experiment is L1210 leukemia ip in BDF1 mice, survival T/C. The experiment can be described thus: NCI In Vivo Anticancer Drug Screen. Data for tumor model L1210 Leukemia (intraperitoneal) in B6D2F1 (BDF1) mice. The following applies: T/C endpoint: mean survival time, higher T/C = longer survival.
[1] abbreviates: dose: 200.0 mg/kg/injection, schedule: Q01DX009 (ip), vehicle: Klucel (hydroxypropylcellulose) (HPC).
The mark [2] stands for this setting: dose: 400.0 mg/kg/injection, schedule: Q01DX009 (ip), vehicle: Klucel (hydroxypropylcellulose) (HPC).
Setting [3] is: dose: 100.0 mg/kg/injection, schedule: Q01DX001 (ip), vehicle: carboxymethylcellulose (CMC).
The mark [4] stands for this setting: dose: 400.0 mg/kg/injection, schedule: Q01DX001 (ip), vehicle: saline.
Setting [5] is: dose: 200.0 mg/kg/injection, schedule: Q04DX003 (ip), vehicle: saline.
Where [6] appears, read: dose: 400.0 mg/kg/injection, schedule: Q04DX003 (ip), vehicle: saline.
[7] abbreviates: dose: 200.0 mg/kg/injection, schedule: Q04DX003 (ip), vehicle: Klucel (hydroxypropylcellulose) (HPC).
The mark [8] stands for this setting: dose: 400.0 mg/kg/injection, schedule: Q04DX003 (ip), vehicle: Klucel (hydroxypropylcellulose) (HPC).
Setting [9] is: dose: 200.0 mg/kg/injection, schedule: Q01DX001 (ip), vehicle: saline.
Setting [10] is: dose: 400.0 mg/kg/injection, schedule: Q01DX009 (ip), vehicle: saline with Tween-80.

For the compound `C=C1C2CCC3C4(C)CC(OC5OC(CO)C(OS(=O)(=O)O)C(OS(=O)(=O)O)C5OC(=O)CCCC)CC(C(=O)O)(C(=O)O)C4CCC3(C2)C1O` (centres undefined), the survivor count (dose: 12.5 mg/kg/injection, schedule: Q01DX009 (ip), vehicle: saline) is recorded as 0 of 6; the survivor count (dose: 12.5 mg/kg/injection, schedule: Q04DX002 (ip), vehicle: saline) is 0 of 3 and 1 of 3; the survivor count (dose: 25.0 mg/kg/injection, schedule: Q01DX009 (ip), vehicle: saline) is 0 of 6; the survivor count (dose: 25.0 mg/kg/injection, schedule: Q04DX002 (ip), vehicle: saline) is on record as 0 of 3; the survivor count (dose: 50.0 mg/kg/injection, schedule: Q01DX009 (ip), vehicle: saline) is listed as 0 of 6; the survivor count (dose: 50.0 mg/kg/injection, schedule: Q04DX002 (ip), vehicle: saline) is 0 of 3. Besides, the survivor count is recorded as 0 of 6 (dose: 100.0 mg/kg/injection, schedule: Q01DX009 (ip), vehicle: Klucel (hydroxypropylcellulose) (HPC)); 0 of 6 under setting [1]; 0 of 6 under setting [2].

On to `S=c1nccc[nH]1`, for which the survivor count (dose: 100.0 mg/kg/injection, schedule: Q01DX009 (ip), vehicle: saline with Tween-80) is given as 2 of 3.

`CCOc1ccc(/C=N/Nc2nnc(N/N=C/c3ccc(OCC)c(OCC)c3)c3ccccc23)cc1OCC`: the survivor count is 3 of 4 under setting [3]; 2 of 4 (dose: 200.0 mg/kg/injection, schedule: Q01DX001 (ip), vehicle: carboxymethylcellulose (CMC)); 1 of 4 (dose: 400.0 mg/kg/injection, schedule: Q01DX001 (ip), vehicle: carboxymethylcellulose (CMC)).

In the case of `O=NN(CCCl)C(=O)Nc1ccc2ccccc2c1`, the survivor count by setting is: (dose: 12.5 mg/kg/injection, schedule: Q01DX001 (ip), vehicle: carboxymethylcellulose (CMC)) 6 of 6; (dose: 25.0 mg/kg/injection, schedule: Q01DX001 (ip), vehicle: carboxymethylcellulose (CMC)) 6 of 6; (dose: 500.0 mg/kg/injection, schedule: Q01DX001 (ip), vehicle: carboxymethylcellulose (CMC)) 6 of 6; (dose: 600.0 mg/kg/injection, schedule: Q01DX001 (ip), vehicle: carboxymethylcellulose (CMC)) 6 of 6; (dose: 800.0 mg/kg/injection, schedule: Q01DX001 (ip), vehicle: carboxymethylcellulose (CMC)) 5 of 6; (dose: 1000.0 mg/kg/injection, schedule: Q01DX001 (ip), vehicle: carboxymethylcellulose (CMC)) 5 of 6. Further, the T/C reads like this: (dose: 50.0 mg/kg/injection, schedule: Q01DX001 (ip), vehicle: carboxymethylcellulose (CMC)) 145 % of control; under setting [3], 147 % of control.

Turning to `CCN(CC)CCSC(=O)c1ccc([N+](=O)[O-])cc1`, the survivor count under setting [4] is listed as 0 of 4.

Turning to `NC(=O)C1(c2ccccc2)CC1`, the survivor count (dose: 400.0 mg/kg/injection, schedule: Q01DX009 (ip), vehicle: saline) is given as 3 of 6.

In the case of `Nc1ncnc2c1ncn2CCCCCCl`, the survivor count reads like this: (dose: 100.0 mg/kg/injection, schedule: Q04DX003 (ip), vehicle: saline) 3 of 6; under setting [5], 0 of 6; under setting [6], 0 of 6.

For `C1OC2CC3CC1C2C3` (centres undefined), the survivor count (dose: 75.0 mg/kg/injection, schedule: Q01DX001 (ip), vehicle: acetone) was 2 of 6; the survivor count (dose: 150.0 mg/kg/injection, schedule: Q01DX001 (ip), vehicle: acetone) was 0 of 6; the survivor count (dose: 300.0 mg/kg/injection, schedule: Q01DX001 (ip), vehicle: acetone) is on record as 0 of 6.

On to `CCCCCCCNC(=O)Nc1cccc(Cl)c1C`, for which the survivor count runs as follows: under setting [7], 6 of 6; under setting [8], 6 of 6.

On to `OC12CCCCC1C[n+]1ccccc1C2` (centres undefined), for which the survivor count by setting is: under setting [9], 2 of 4; under setting [4], 0 of 4.

`Cc1cccn2ncnc12`: the survivor count (dose: 400.0 mg/kg/injection, schedule: Q01DX001 (ip), vehicle: alcohol) was 0 of 6.

For the compound `O=C(CCCC(=O)NNC(=O)Nc1cccc2ccccc12)NNC(=O)Nc1cccc2ccccc12`, the survivor count under setting [4] is 3 of 4.

Regarding `CCC[CH2][Hg][O]C(C)=O`, the survivor count is recorded as 1 of 6 (dose: 25.0 mg/kg/injection, schedule: Q04DX003 (ip), vehicle: Klucel (hydroxypropylcellulose) (HPC)); 0 of 6 (dose: 100.0 mg/kg/injection, schedule: Q04DX003 (ip), vehicle: Klucel (hydroxypropylcellulose) (HPC)); 0 of 6 under setting [7]; 0 of 6 under setting [8].

Consider `C/C(Cc1ccccc1)=N/N(C)C`, for which the survivor count under setting [10] is on record as 0 of 6.

Regarding `CCCCCN(C)N=Nc1ccccc1C(N)=O`, the survivor count under setting [2] is listed as 0 of 6.

`CC(=O)OCC(OC(C)=O)C1(O)CCC2C3CCC4=CC(=O)CCC4(C)C3CCC21C` (centres undefined): the survivor count is, setting by setting: (dose: 50.0 mg/kg/injection, schedule: Q01DX009 (ip), vehicle: Klucel (hydroxypropylcellulose) (HPC)) 3 of 3; under setting [1], 3 of 3.

On to `CC(=O)OC(C(C)=O)C(C)=O.CC(=O)OC(C(C)=O)C(C)=O.[Cu]`, for which the survivor count is, setting by setting: (dose: 100.0 mg/kg/injection, schedule: Q01DX001 (ip), vehicle: saline) 2 of 6; under setting [9], 6 of 6; under setting [4], 6 of 6.

Take `CCN(CC)CCSSCCN(CC)CC.[Cl][Mn][Cl]`: the survivor count is, setting by setting: under setting [9], 3 of 6; under setting [4], 0 of 6.

Take `NC(=O)c1nccnc1Cl`: the survivor count under setting [10] was 2 of 6.

Consider `O=C1Nc2nc(=O)nc3[nH]c(=O)nc(n23)N1`, for which the survivor count (dose: 150.0 mg/kg/injection, schedule: Q01DX009 (ip), vehicle: saline) was 1 of 6; the survivor count under setting [5] is given as 1 of 6; the survivor count (dose: 225.0 mg/kg/injection, schedule: Q01DX009 (ip), vehicle: saline) is recorded as 0 of 6; the survivor count (dose: 335.0 mg/kg/injection, schedule: Q01DX009 (ip), vehicle: saline) is given as 0 of 6; the survivor count under setting [6] is reported as 0 of 6.

Turning to `Cc1ccc(C(C)C)cc1OCO`, where the note is “dose: 45.0 mg/kg/injection, schedule: Q01DX Z (ip), vehicle: methylcellulose (MC)”, the survivor count is listed as 3 of 6.

In the case of `Nc1ccc2ccccc2c1N=Nc1ccc(C(O)C(N)CO)cc1` (centres undefined), the survivor count was 1 of 6 (dose: 100.0 mg/kg/injection, schedule: Q04DX003 (ip), vehicle: saline with Tween-80); 1 of 6 (dose: 200.0 mg/kg/injection, schedule: Q04DX003 (ip), vehicle: saline with Tween-80); 0 of 6 (dose: 400.0 mg/kg/injection, schedule: Q04DX003 (ip), vehicle: saline with Tween-80).

As to `O=[As](O)(CC(O)c1ccccc1)c1ccccc1` (centres undefined), the survivor count by setting is: (dose: 25.0 mg/kg/injection, schedule: Q01DX001 (ip), vehicle: saline with Tween-80) 4 of 6; (dose: 100.0 mg/kg/injection, schedule: Q01DX001 (ip), vehicle: saline with Tween-80) 0 of 6; (dose: 200.0 mg/kg/injection, schedule: Q01DX001 (ip), vehicle: saline with Tween-80) 0 of 6; (dose: 400.0 mg/kg/injection, schedule: Q01DX001 (ip), vehicle: saline with Tween-80) 0 of 6.

On to `N/C(=C\C(=O)c1ccccc1)C(=O)c1ccccc1`, for which the survivor count under setting [8] is 2 of 6.

In the case of `CC1CC(C)/C(=N/N(C)C)C(C(O)CC2CC(=O)NC(=O)C2)C1` (centres undefined), the T/C (dose: 175.0 mg/kg/injection, schedule: Q01DX Z (ip), vehicle: carboxymethylcellulose (CMC)) was 139 % of control.

The values above are taken from PubChem BioAssay AID248 (DTP/NCI, 2004).
